Measurements taken from patent publication US6417182B1, “Pharmaceutical compositions comprising metal complexes” (AnorMED Inc., priority 1993, dated 2002).
Several values for one entry are separate records, joined by “and”; a condition that tells them apart may be missing. Equal entries are not always repeated.

Assay: in vitro NO uptake test (manometric pressure decrease; IR spectrum of freeze-dried product)
Details: freeze-dried reaction solution after in vitro NO test
Method: The resulting solution was placed in a three-necked pear-shaped flask and stirred by a magnetic stirrer at constant speed of 1000 rpm, at a constant temperature in the range 20° C.-24° C. A manometer was attached to the flask, and purified, dried nitric oxide gas (known volume in the range 3-5 cm^3) was introduced via a septum, using a gas syringe, at atmospheric pressure into the headspace above the reaction solution. The pressure within the flask was recorded periodically over a period of one hour.
A control experiment was carried out according to the above but without any complex present.
On completion of each in vitro test, the reaction solution was freeze-dried. An infrared spectrum of the freeze-dried product provided information on metal-NO bond formation.

In order of falling “IR spectrum peak indicating the presence of a metal—NO bond” value:
1. O.O=C([O-])c1cccc(C(=O)[O-])n1.O=C([O-])c1cccc(C(=O)[O-])n1.[K+].[Ru+3] [Example 4, K[Ru(dipic)2]H2O]  1915 cm⁻¹
2. N.N.N.N.N.N.[Cl-].[Cl-].[Cl-].[Ru+3] [Example 21, [Ru(NH3)6]Cl3]  1910 cm⁻¹
3. NCCN.NCCN.NCCN.[I-].[I-].[I-].[Ru+3] [Example 16, [Ru(en)3]I3]  1906 cm⁻¹
4. O.O=C([O-])CN(CCN(CC(=O)[O-])CC(=O)O)CCN(CC(=O)[O-])CC(=O)O.[Cl-].[K+].[Ru+3] [Example 8, K[Ru(H2dtpa)Cl]H2O]  1905 cm⁻¹
5. O.[Cl-].[Cl-].[Cl-].[Cl-].[K+].[Ru+3].c1cnc2c(c1)ccc1cccnc12 [Example 17, K[RuCl4(phen)]H2O]  1904 cm⁻¹
6. O.[Cl-].[Cl-].[Cl][Ru]([Cl])[Cl].[K+].[K+] [Example 28, K2[RuCl5(H2O)]]  1903 cm⁻¹
7. CC#N.CC#N.CC(=O)C=C(C)[O-].CC(=O)C=C(C)[O-].O=S(=O)([O-])C(F)(F)F.[Ru+3] [Example 27, [Ru(acac)2(MeCN)2]CF3SO3]  1899 cm⁻¹
8. O.O.O=C([O-])CN(CCN(CC(=O)[O-])CC(=O)O)CC(=O)[O-].[Cl-].[K+].[Ru+3] [Example 1, K[Ru(Hedta)Cl]2H2O]  1897 cm⁻¹
9. CC(=O)C=C(C)[O-].O=C([O-])CN(CCN(CC(=O)[O-])CC(=O)O)CC(=O)O.[Ru+3] [Example 2, [Ru(H2edta)(acac)]]  1896 cm⁻¹
10. O.O=C([O-])CN(CCN(CC(=O)[O-])CC(=O)O)CC(=O)O.[Cl-].[Cl-].[K+].[Ru+3] [Example 6, K[Ru(H2edta)Cl2]H2O]  1896 cm⁻¹
11. CC(=O)[O-].CC(=O)[O-].CC(=O)[O-].CC(=O)[O-].[Cl-].[Ru+3].[Ru+3] [Example 14, [Ru2(OAc)4]Cl]  1895 cm⁻¹
12. O.O=C([O-])C(=O)[O-].[Os+2].c1ccc(-c2ccccn2)nc1.c1ccc(-c2ccccn2)nc1 [Example 29, [Os(ox)(bipy)2].H2O]  1894 cm⁻¹
13. CS(C)=O.CS(C)=O.CS(C)=O.N.[Cl-].[Cl-].[Ru+2] [Example 23, cis-[RuCl2(dmso)3(NH3)]]  1893 cm⁻¹
14. CC(=O)[O-].CC(=O)[O-].CC(=O)[O-].CC(=O)[O-].O=[N+]([O-])[O-].[Ru+2].[Ru+3] [Example 11, [Ru2(OAc)4]NO3]  1891 cm⁻¹
15. CCC(=O)[O-].CCC(=O)[O-].CCC(=O)[O-].CCC(=O)[O-].O=[N+]([O-])[O-].[Ru+3].[Ru+3] [Example 12, [Ru2(OCOEt)4]NO3]  1891 cm⁻¹
16. O.O=C([O-])CN(CCO)CCN(CC(=O)[O-])CC(=O)[O-].[Cl-].[K+].[Ru+3] [Example 3, K[Ru(hedtra)Cl]H2O]  1889 cm⁻¹
17. O.O=C([O-])CN(CC(=O)[O-])CC(=O)O.O=C([O-])CN(CC(=O)[O-])CC(=O)O.O=C([O-])CN(CC(=O)[O-])CC(=O)O.O=C([O-])CN(CC(=O)[O-])CC(=O)O.[K+].[K+].[Ru+3].[Ru+3] [Example 7, K[Ru(Hnta)2]½H2O]  1889 cm⁻¹
18. O=C([O-])C(=O)[O-].O=C([O-])C(=O)[O-].O=C([O-])C(=O)[O-].[K+].[K+].[K+].[Ru+3] [Example 13, K3[Ru(ox)3]]  1889 cm⁻¹
19. CS(C)=O.CS(C)=O.N.[Cl-].[Cl-].[Cl-].[Ru+3] [Example 20, [RuCl3(dmso)2(NH3)]]  1889 cm⁻¹
20. O.O=C(O)c1cccc[nH+]1.O=C(O)c1ccccn1.O=C([O-])c1ccccn1.O=C([O-])c1ccccn1.[Cl-].[Cl-].[Ru+3] [Example 5, (H2pic)[RuCl2(pic)2](Hpic)H2O]  1888 cm⁻¹
21. [Cl-].[Cl-].[Cl-].[Cl-].[K+].[Ru+3].c1ccc(-c2ccccn2)nc1 [Example 19, K[RuCl4(bipy)]]  1885 cm⁻¹
22. [Ru3O(lac)6](lac) [Example 9]  1884 cm⁻¹
23. CS(C)=O.CS(C)=O.CS(C)=O.CS(C)=O.[Cl][Ru][Cl] [Example 22, cis-[RuCl2(dmso)4]]  1881 cm⁻¹
24. CS(C)=O.CS(C)=O.CS(C)=O.[Cl-].[Cl-].[Cl-].[Ru+3] [Example 24, [RuCl3(dmso)3]]  1880 cm⁻¹
25. CC(=O)[O-].CC(=O)[O-].CC(=O)[O-].CC(=O)[O-].CC(=O)[O-].CC(=O)[O-].CC(=O)[O-].[O-2].[Ru+3].[Ru+3].[Ru+3] [Example 10, [Ru3O(OAc)6](OAc)]  1877 cm⁻¹
26. Cc1occc(=O)c1[O-].Cc1occc(=O)c1[O-].Cc1occc(=O)c1[O-].[Ru+3] [Example 26, [Ru(maltol)3]]  1866 cm⁻¹
27. S=C([S-])N1CCOCC1.S=C([S-])N1CCOCC1.S=C([S-])N1CCOCC1.[Ru+3] [Example 25, [Ru(mtc)3]]  1862 cm⁻¹

In the case of [Ru(NH3)5Cl]Cl2 [Example 15], the “IR spectrum peak indicating the presence of a metal—NO bond” value is reported as 1909 cm⁻¹ and 1928 cm⁻¹.
